According to publication PMC11651612:
No constants are given. Whether binding was seen depends on the method and setting. Binding seen in cells or lysates may run through a third protein. A yes stands for co-enrichment or nearness to the bait. Other partners may have been found. For part of these data: Where a sequence is shown, tags or fusion partners need not be part of it.

T1: Cdc10-mCherry (C. neoformans) (UniProt J9VMT9)
T1 sequence: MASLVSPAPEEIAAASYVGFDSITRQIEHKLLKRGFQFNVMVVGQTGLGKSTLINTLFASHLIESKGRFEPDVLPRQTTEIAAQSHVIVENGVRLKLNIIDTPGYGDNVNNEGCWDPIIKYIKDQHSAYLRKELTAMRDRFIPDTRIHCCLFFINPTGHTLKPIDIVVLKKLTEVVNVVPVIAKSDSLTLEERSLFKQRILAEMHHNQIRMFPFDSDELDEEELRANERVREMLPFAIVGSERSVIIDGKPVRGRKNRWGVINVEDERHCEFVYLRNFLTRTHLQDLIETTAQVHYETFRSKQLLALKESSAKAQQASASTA

T2: Cdc3-mCherry (C. neoformans) (UniProt J9VUF2)
T2 sequence: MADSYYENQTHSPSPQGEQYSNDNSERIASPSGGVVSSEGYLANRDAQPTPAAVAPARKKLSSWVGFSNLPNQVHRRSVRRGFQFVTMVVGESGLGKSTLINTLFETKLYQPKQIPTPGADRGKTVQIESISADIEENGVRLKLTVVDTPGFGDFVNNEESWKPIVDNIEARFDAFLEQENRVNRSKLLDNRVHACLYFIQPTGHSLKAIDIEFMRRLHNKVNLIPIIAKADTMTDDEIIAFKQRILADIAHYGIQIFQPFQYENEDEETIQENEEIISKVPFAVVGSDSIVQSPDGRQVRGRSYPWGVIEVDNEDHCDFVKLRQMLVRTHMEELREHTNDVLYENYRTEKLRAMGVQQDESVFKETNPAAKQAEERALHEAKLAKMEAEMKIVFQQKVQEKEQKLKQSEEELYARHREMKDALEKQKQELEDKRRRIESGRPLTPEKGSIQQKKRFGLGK

B1: Uracil phosphoribosyl transferase (protein, UniProt J9VUW0 1-213)
chain: MSKINISNHPLILSKLTQLRLHDLPPKDFREGIRIIGSMLIYEAARDLPLRDVPDLRSPIAPFTGQTIPLRIGLSPILRAGIGLTDAALESFPEATVLHLGLFRDKVSLQAIEYYSKLPSQVTADLVFLLDPLIATGGTAIAALNMLTEWGLDQSQIKIVSVLGSKLGVKNVQDEFPNVEIYIAAIDDELTDKGYISPGLGDAGDKLFNTFAH
B2: Amino oxidase (protein, UniProt J9VTQ9 1-470)
chain: MRISLIRNMSNAYDSIILGAGWAGSVAAKELTSKGHRVLVLEARDRVGGRARTWTGGGAKIDIGCSWIHGYKEGNPARNIAKSLGVEARLPAAAEGVIYGPNGPLSAEEADALRASLGTAVASSKLPHPSPPPTTSLASALFSPNSALFSTASDQSLAKALARSLEVPLGLKLEKASLKWAGWETTTSYAGSDAAPEGGYQSLVTKVLESSKAEVKLNSPVTSIKETSSGVEVTTRSGETYSAASVLSTIPLGVLKSLPEDFFTPALPAHLRETIAGTHVGVLEKLLVQYPTAWWPNAEKVGSYTFLPTGPEPSASSTLEQVFEGSTLITANFAAPTLPGPTPTLLTYLSETPAKILLQHPTEKVAEAFHSFLVKRFSPSSPPPAPSASALTTWLTDPLSRGATTTPSIISTGERSPMDFKELSRPVWGGKLGFAGEHTEMENRGSVAGAVISGFREADRIDKWLAVRKE
B3: FK506-binding protein 1 [FRR1] (protein, UniProt O94746 1-108)
chain: MGVTVENISAGDGKTFPQPGDNVTIHYVGTLLDGSKFDSSRDRGTPFVCRIGQGQVIRGWDEGVPQLSVGQKANLICTPDYAYGARGFPPVIPPNSTLKFEVELLKVN
B4: Adaptin ear-binding coat-associated protein 2 (protein, UniProt J9VEV2 1-202)
chain: MESLTDEIEAVLFVAREVMVYQIPPRTTTAGYKAAEWNVESFLWKGRMRVLDVGSRSEIRLEDSNTGELFAQVNYVSPWNQVEPVLDSSRYFVLRVEGEGGKRAYIGMGFAERGESFDFQVALQSVTKRSQNISSSSNPSEQPQPTAPPKDYSLKDGQTFTIKIPGREGKKPSPSQTPSSGGGGGGGGLFSLPPPPPPGRRG
B5: 1,4-alpha-glucan-branching enzyme (protein, UniProt J9VGQ7 1-682)
chain: MTAVSLSDGTGVLKTDPWLEPFSGALRERYAAYQKQRTIIEEHEGGLAEFSKGYKSMGFQVDKNGGVRYREWAPNATEARLIGEFNNWSHTANPMTKSPFGVWECYVPPVSPGVCPIPHDSMVKISMTIPGGESIDRIPTWITRVTQDLNISPVYDGRFWNPPKDQQYRFKHGHSTRPVEGLKIYEAHVGISSPNMRVTTYKEFEVDVLPKIKQLGYNCIQMMAIMEHAYYASFGYQVTNFFAASSRFGTPEELKSLVDKAHELGLTVLLDVVHSHASKNILDGINMYDGSDHLYFHEGGRGRHDQWDSRLFNYGHHEVLRFLLSNLRFWMDIYMFDGFRFDGVTSMMYKHHGIGSGFSGGYHEYFGDSVDLEAMVYLMLANAMLHENYPHVVTIAEDVSGMPTLCRPVAEGGVGFDYRLSMAIPDMWIKLLKEYTDDQWEMGHIVHNLTNRRHLEKSVAYAESHDQALVGDKTLAFWLMDKEMYDFMSDLSPLTPIIDRGLALHKMIRFIVHTLGGEAYLNFEGNEFGHPEWMDFPREGNGNSFAHARRQFNLVDDKLLRYKYLYEFDVAMNWLEDKYKWLNSPQAYVSLKHEGDKVIVFERAGLLFIFNFHPTQSFTDYRVGVDTAGEYKVILTSDETRFGGHNRIDMGGRYFTTPMEWNGRKNWLQVYSPSRTVLVLGL
B6: 2-hydroxyacid dehydrogenase (protein, UniProt J9VX79 1-335)
chain: MSKPQVLIAANPKTGIVWSKEEQSSKLGAVAEVLELTSASRSEFFQDLASNGKYANIVAIYRHNDSVSAIGLFDEELINKLPTSVKYICHNGAGYDQIDIAACTARGIQVSHTPQAVDDATATVGAFLAISAMRQFWRAEVNVRSGKWKAGLSPARDPEGKTLGIIGMGGIGSALARRLLAFDMKVIYYNRRPIQPPPNFPCTYVSSIEELLQQADVVSLNLPLNENTRGSFGRKAFSLMKDGSVLINTARGAVIDEEAFIEALESGKLYSAGIDVYPDEPNVNPKLLAMDNITLLPHMGTETRDSQKKMELLVLDNMVSALTGKGLLNQVPEQK
B7: ATP-dependent (S)-NAD(P)H-hydrate dehydratase (protein, UniProt J9VIT7 1-346)
chain: MASKQHAHILSLARSMIPPLHPKLHKGQAGRIGVLGGSGDYSGAPYFSSMGAMRFGADLAHVICEPSAGAVIKTYSPDLIVHTILDPQKSREDIRSALKGVMSRLHVLIIGPGLGRDDHMQSCAKIAFELAKDMEQMGVVVDADGLWLVQNEPKVVMDWPGVPRIILTPNVMEFKRLCDTMKINASGPHTSLCPQLATALGNATIIQKGPSDIISNGLKIPFALLSDESEEEQNYLEVKVEGGLKRVGGQGDILSGSTGVLLAWGSEWVRGTYEHVGHPPPQDKAIKENIPVLAAYGASTFNRTVSKRGFQKKGRSMVTGDLVDMVGEVYEEVFGNPGEVEGRGKL
B8: ADF-H domain-containing protein (protein, UniProt J9VKE8 1-147)
chain: MADVTDSKIAEAYEQIRSNGSEESWMLLDYESEKSNKLVLTATGKGDLSELSAQLKPENASFAYAKVRYENDEHSFREKFILVIWIGENVKVMRRARVSVHAADVKKVLRTYSIEISASTPADLEQDDVVTRLRRAGGANYDRSKFD
B9: Vacuolar protein sorting-associated protein vps17 (protein, UniProt J9VJ63 1-818)
chain: MDPLAHTDDINAGWSSPTTNLRFDAASAAEDTAPTSATSNPYAERNVSASENANGFGAHNSTGLGSGIVGGDIGAGYREPVVFGAPGMGLVSPPPESAFQQSQQETPGGAVQQERKAPRVYLRVRIGTLERNKKDLLIRFDASTNLSTYKNGMYRNMQRSYVEFQRFAEQLSLVCPQTIIPALPLPSTSASTDEEDDRLVRIALQRWFSRVCEDPVLMRQDEVRSFIESNFGYSPIPPPTAKRSQTNVLSALTKVVRRGPLDEDDELSSAKIALDKLEERYGHAATCVSHVGKARRQLANSNAELGAKMVSLSTVESEPSLAGAERKLGRAWEQVSGMINAQAANENVILSDTLGYQALNARAAKDTLVQRTAVLEDSQSASKAAITKRRNLERLKASSNINPAKVDDAISEMQEADSLEQSLSHRVTAISQNLHHSLRAHSRHAHEDIAISLMEAARMSAIYHKQALRELESLRADIGKVAPGAAPLDGLAISGKSPAASRVQPTQPSLVSSPPPPQSQYASPYAAQPPLTAQVGRQPPMARTSQSQVQPQPQAQPQVQPPIQPQAQTTFHPQPQAYPRNPYATQPPPSQSAAPPFPPQSQSQSSSYPIQPPGSSSQSPYGLAPNAAGPSTSSQFPPRIPTSPPTTGFPVADGTQSMFLPSGGNGGMQRSHSAAPDAPGFAGAPRMVDPLAGYPRGPAAPGMQGMQGMGQSMFVPSQSQSQASFRTHPAQPLTPNAGPGPASQAYQPQFQPPQPPYQPAQLGQGYPVQNVSGYPGQQQPQQISPFPGPAGVQRAATIATGRRKLDERKAAKMLAGGF
B10: B30.2/SPRY domain-containing protein (protein, UniProt J9VX51 1-490)
chain: MPTESTPSELPLSTPHTPAGVIKCSICGIGNLSQPLSIPVSDYFGGSTVEFGERVCGRCAMARGHGEADIQSQSQNENQSRDRERGWEKESEMRERGRGSVKQENGRTLDDVLEENETAERRGVVCDLKTPTFSQSLPSQLPQPWTTTKPASSSPGNTRGLIESPKPEAASRSKEKMDQPPNPLLDITKMRVRSIDRGPLYPGSVFKGTQTSGRSAYDVEVKFLDVDFADSTLSGYLSISHLTDSHPHLTTFFTGEIIGPKYGFITGPRYAATEHDDLRHWGRFEQFRRPSTRADLVGEELFLRDPQPDRSRGETKGKERDFVFLRIKEQFLVPDHKVKDISGASFAGFYYIMVDMAPTVTVPVSQPATPLSPTFKSPFVPSSPANSRRTSGTGMPTLGLGMGMGLGATIGAGVGGGMGMAGEQISGINRTRPARPSGTRKESSGRMREREVRGEPTIRGYYFHSLNQEPFQELFLSHVPQKSKCTFEYR
B11: Acylpyruvate hydrolase (protein, UniProt J9VTE8 1-228)
chain: MSNFIKAGKKIVAIGRNYADHAKELGNAIPKEPFFFLKPTSSYLVPGAGPVEIPRGVVMHHEVELGVVIGKNGRNISPSTAFDHVAGYSLAVDMTARNVQDKVKAKGLPWSAAKGFDTFCPIGPFIPKHFIADPTKVGLHFSVNGTVKQSGLTSDMIFDIPQLIAFVSGIMKLEEGDLVLTGTPSGVGQIKGGETFEAKLTYPGLDGKILSKYEIECVERQGGYEFMP

What follows are binders tested against T1, Cdc10-mCherry (C. neoformans) (assay: affinity purification with mass spectrom).

binding, binds:
B1
B2

Each binder was assayed against T2, Cdc3-mCherry (C. neoformans) (assay: affinity purification with mass spectrom).

binding, binds:
B3
B4
B5
B6
B7
B8
B9
B2
B10
B11
